Some results were stated once for a whole list of compounds, not compound by compound. Some ranges recur; such a range may be that of the whole group of compounds.
Target: T1, hormone-sensitive lipase, HSL (Rattus norvegicus, UniProt P15304)
T1 construct: Isolated rat fat cells are obtained from epididymal adipose tissue from untreated male rats; from tissue; host or cells: fat cells from epididymal adipose tissue of male Wistar rats
T1 sequence (P15304 301-1068 limits assumed): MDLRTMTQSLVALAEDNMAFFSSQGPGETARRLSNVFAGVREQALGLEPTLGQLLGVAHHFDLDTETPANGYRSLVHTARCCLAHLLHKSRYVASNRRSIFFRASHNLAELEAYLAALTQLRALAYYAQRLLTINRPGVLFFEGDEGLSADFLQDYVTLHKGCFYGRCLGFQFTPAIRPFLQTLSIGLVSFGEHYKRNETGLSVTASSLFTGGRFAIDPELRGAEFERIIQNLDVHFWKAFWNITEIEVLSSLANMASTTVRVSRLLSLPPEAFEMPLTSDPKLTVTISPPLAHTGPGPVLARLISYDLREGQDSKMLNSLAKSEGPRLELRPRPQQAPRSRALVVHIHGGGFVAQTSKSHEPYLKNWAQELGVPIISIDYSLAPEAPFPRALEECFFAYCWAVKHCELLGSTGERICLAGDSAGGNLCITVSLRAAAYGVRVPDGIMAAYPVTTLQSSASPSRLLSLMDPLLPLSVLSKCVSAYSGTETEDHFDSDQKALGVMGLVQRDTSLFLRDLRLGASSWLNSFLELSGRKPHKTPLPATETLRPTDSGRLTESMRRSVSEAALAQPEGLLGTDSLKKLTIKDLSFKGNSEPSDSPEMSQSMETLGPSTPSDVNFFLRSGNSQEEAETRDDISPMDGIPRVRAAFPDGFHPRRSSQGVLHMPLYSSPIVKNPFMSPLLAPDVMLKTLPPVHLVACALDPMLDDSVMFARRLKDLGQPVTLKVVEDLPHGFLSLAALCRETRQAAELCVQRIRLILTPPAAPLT
Assay: HSL enzyme assay (NAG substrate / [3H]trioleoylglycerol) with partially purified HSL
Assay type: biochemical
Conditions: partially purified HSL from rat fat cells; IC50 from inhibition plot with min. 10 concentrations; read-out: inhibition of the HSL enzymatic activity, IC50

Row | Structure (SMILES) | IC50 [µM]
1 | O=C(N1CCc2ccc([N+](=O)[O-])cc2C1)n1nnc2ccccc21 [Example 52, Benzotriazol-1-yl-(7-nitro-3,4-dihydro-1H-isoquinolin-2-yl)methanone] | 0.04 to 5
2 | O=C(N1CCCCCC1)n1nnc2ccccc21 [Example 53, Azepan-1-ylbenzotriazol-1-ylmethanone] | 0.04 to 5
3 | O=C(N1CCC(Cl)CC1)n1nnc2ccccc21 [Example 54, Benzotriazol-1-yl-(4-chloropiperidin-1-yl)methanone] | 0.04 to 5
4 | O=C(N1CC=CCC1)n1nnc2ccccc21 [Example 55, Benzotriazol-1-yl-(3,6-dihydro-2H-pyridin-1-yl)methanone] | 0.04 to 5

Next, values leading:

Row | IC50 [µM] | Structure (SMILES)
5 | 0.04 to 5 | O=C(N1CC=CCC1)n1nnc2c(Cl)cc(C(F)(F)F)cc21 [Example 47, (4-Chloro-6-trifluoromethylbenzotriazol-1-yl)-(3,6-dihydro-2H-pyridin-1-yl)methanone]
6 | 0.04 to 5 | COc1ccc2c(c1)CN(C(=O)n1nnc3ccccc31)CC2 [Example 48, Benzotriazol-1-yl-(7-methoxy-3,4-dihydro-1H-isoquinolin-2-yl)methanone]
7 | 0.04 to 5 | COc1ccc2c(c1)nnn2C(=O)N1CCC(C)CC1 [Example 49, (5-Methoxybenzotriazol-1-yl)-(4-methylpiperidin-1-yl)methanone]
8 | 0.04 to 5 | O=C(N1CCc2ccccc2C1)n1nnc2ccc([N+](=O)[O-])cc21 [Example 50, (3,4-Dihydro-1H-isoquinolin-2-yl)-(6-nitrobenzotriazol-1-yl)methanone]
9 | 0.04 to 5 | CC1CCN(C(=O)n2nnc3ccc(C(=O)c4ccccc4)cc32)CC1 [Example 51, (6-Benzoylbenzotriazol-1-yl)-(4-methylpiperidin-1-yl)methanone]
